The list shows a part of the results. These are further read-outs of the screen, such as a control signal, another cell line or another target. No call is given for them. The list favours compounds with an active or inconclusive main result. Potencies come from curve fits of mixed quality, noted in brackets.
Test: qHTS Assay for Modulators of Lamin A Splicing
Details: HeLa LMNA splicing GFP/RFP minigene ratio, 48 h
Summary of the method: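 Read-out is the ratio of GFP to DsRed2 object intensity, acquired by 488 nm laser-scanning cytometry on HeLa lamin A-EGFP minigene reporter cells. Compound incubation 48 hrs at 37 °C in Opti-MEM with 2% FBS; DMSO 0.5% final.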

[1] = measured here: RFP viability control channel
[2] = measured here: GFP splicing reporter channel

CCOc1ccccc1OCCn1nnc2ccccc21
AC50 [1]: 31.6 µM [rising, single point]

O=C(CSc1ncnc2nc[nH]c12)Nc1nnc(SCc2ccc(Cl)c(Cl)c2)s1
AC50 [1]: 12.6 µM [falling, single point]

CCn1nc(C)c(NC(=O)CC23CC4CC(CC(C4)C2)C3)c1C
AC50 [1]: 17.8 µM [rising, single point]

CCCCc1nn2c(=O)cc(COC(=O)c3ccc(NC(=O)c4ccccc4Cl)cc3)nc2s1
AC50 [1]: 35.5 µM [falling, single point]

O=C(Nc1nc(-c2ccc(Cl)s2)cs1)c1ccccc1
AC50 [2]: 35.5 µM [rising, single point] | AC50 [1]: 35.5 µM [rising, single point]

CCN(CC)S(=O)(=O)c1ccc(N/N=C/c2cc(OC)c(OC)cc2OC)nc1
AC50 [1]: 31.6 µM [rising, single point]

Cc1cccc(OCCc2nnc(N)s2)c1C
AC50 [2]: 15.8 µM [rising, single point]

NNc1nc2sc3c(c2c(=O)[nH]1)CCc1ccccc1-3
AC50 [1]: 7.08 µM [rising, partial curve]

COc1cccc(-c2cncnc2NCc2cccs2)c1
AC50 [2]: 20 µM [falling, partial curve] | AC50 [1]: 12.6 µM [falling, partial curve]

Cc1cccc(N(CC(=O)N2CCN(c3ccc(F)cc3)CC2)S(C)(=O)=O)c1C
AC50 [2]: 3.16 µM [rising, single point]

Cc1ccc(Br)cc1S(=O)(=O)N1CCN(c2ccccc2)CC1
AC50 [2]: 35.5 µM [rising, single point]

O=C(c1ccccc1)N(Cc1ccc(F)cc1)C1CCS(=O)(=O)C1 (stereo not given)
AC50 [1]: 5.62 µM [rising, single point]

COc1ccc(CSc2nc(CSC)cc(N3CCOCC3)n2)cc1
AC50 [2]: 31.6 µM [rising, single point]

Cc1cc(C)c2c(N)c(C(=O)c3ccc(Cl)cc3)sc2n1
AC50 [2]: 17.8 µM [rising, single point]

CCS(=O)(=O)N1Cc2ccccc2CC1C(=O)Nc1nnc(SCc2ccc(C#N)cc2)s1 (stereo not given)
AC50 [2]: 0.00891 µM [rising, full curve, poor fit] | AC50 [1]: 25.1 µM [rising, partial curve]

CCOC(=O)c1cc2c(=O)n3ccccc3nc2n(Cc2ccco2)c1=NC(=O)c1cccnc1
AC50 [1]: 0.562 µM [falling, full curve]

COCCNc1nnc(SCC(=O)Nc2sc3c(c2C(=O)c2ccccc2)CCCC3)s1
AC50 [2]: 31.6 µM [rising, single point] | AC50 [1]: 35.5 µM [rising, single point]

O=C(CSc1nnc(COc2ccc(Cl)cc2)n1Cc1ccco1)c1ccccc1F
AC50 [1]: 3.55 µM [rising, full curve]

COC(=O)c1nc(NC(=O)C(C)C)n[nH]1
AC50 [1]: 11.2 µM [rising, single point]

Cc1ccc(C)c(S(=O)(=O)N2CCN(Cc3ccc(O)c4ncccc34)CC2)c1
AC50 [1]: 25.1 µM [rising, single point]

O=C(NCc1ccccc1)NC1(C(=O)N2CCN(c3ccccc3)CC2)CCCCC1
AC50 [1]: 35.5 µM [rising, single point]

C=CCSc1nnc(CCCCCN2C(=O)c3cccc4cccc(c34)C2=O)o1
AC50 [2]: 12.6 µM [rising, partial curve, poor fit] | AC50 [1]: 15.8 µM [rising, partial curve]

CC(C(=O)Nc1ccc2c(c1)OCCO2)c1ccc([N+](=O)[O-])cc1 (stereo not given)
AC50 [2]: 1.41 µM [falling, partial curve, poor fit]

COc1ccc(CCNS(=O)(=O)c2ccc3c(c2)CC(C)N3C(=O)C2CCC2)cc1OC (stereo not given)
AC50 [2]: 0.891 µM [falling, full curve, poor fit] | AC50 [1]: 1 µM [falling, partial curve]

CCOC(=O)c1ccc(N2C(=O)c3n[nH]c(C)c3C2c2ccco2)cc1 (stereo not given)
AC50 [1]: 2.82 µM [rising, single point]

Cc1nn(Cc2ccc(Cl)cc2)c(C)c1NC(=O)C(c1ccccc1)c1ccccc1
AC50 [1]: 20 µM [rising, partial curve, poor fit]

COc1ccc(-c2nc(C#N)c(N3CCN(c4cccc(Cl)c4)CC3)o2)cc1OC
AC50 [1]: 35.5 µM [rising, single point]

Cc1nnc(-c2ccccc2)c(=O)n1/N=C/c1c(O)ccc2ccccc12
AC50 [2]: 3.55 µM [falling, full curve] | AC50 [1]: 5.62 µM [falling, single point]

CCN(CC)c1ccc(NS(=O)(=O)c2ccc(-c3cnc(C4CC4)o3)cc2)c(C)c1
AC50 [1]: 10 µM [rising, partial curve]

COc1cc(/C=C/C(=O)c2ccc(NS(=O)(=O)c3ccc(C)cc3)cc2)ccc1OC(F)F
AC50 [2]: 14.1 µM [falling, single point] | AC50 [1]: 20 µM [falling, single point]

CC(C)OC(=O)c1cc(-c2ccc(C=O)o2)ccc1Cl
AC50 [1]: 35.5 µM [rising, single point]

CCOc1ccc(CCNC(=O)c2sc3nc4n(c(=O)c3c2C)CCCC4)cc1OCC
AC50 [2]: 1 µM [rising, full curve, poor fit]

O=C(COc1ccc(Cl)cc1Cl)NCc1ccncc1
AC50 [1]: 12.6 µM [rising, single point]

COc1ccc(-n2c(SCC(=O)Nc3ccc(Cl)c(C)c3)nc3n[nH]c(C)c3c2=N)cc1
AC50 [2]: 35.5 µM [falling, single point]

C=CCc1cccc(/C=N/NC(=O)CCC(=O)Nc2ccc(C)cc2)c1O
AC50 [1]: 11.2 µM [rising, partial curve, poor fit]

CCCCN(CCCC)S(=O)(=O)c1ccc(NC(=O)c2cccs2)cc1
AC50 [2]: 15.8 µM [rising, single point] | AC50 [1]: 35.5 µM [rising, single point]

O=C(Nc1nc2ccc(S(=O)(=O)N3CCCC3)cc2s1)c1cccc(F)c1
AC50 [1]: 0.0224 µM [rising, full curve, poor fit]

Cc1cc(C)cc(-n2ccnc2SCC(=O)Nc2nnc(C)s2)c1
AC50 [1]: 12.6 µM [rising, partial curve]

CCN1CC(CN(C)Cc2cn(-c3ccc(C)cc3)nc2-c2cccc(C)c2)CC1=O (stereo not given)
AC50 [2]: 4.47 µM [falling, full curve] | AC50 [1]: 8.91 µM [falling, partial curve, poor fit]

Cc1cc(C)n(-c2nnc(C)n2/N=C/c2ccccc2O)n1
AC50 [2]: 5.62 µM [falling, single point] | AC50 [1]: 5.62 µM [falling, single point]

O=C(O)CCNC(=O)c1ccc(Br)o1
AC50 [1]: 4.47 µM [rising, partial curve, poor fit]

COc1ccc(-c2nc3sc(CCNC(=O)c4cc(OC)c(OC)c(OC)c4)c(C)n3n2)cc1
AC50 [2]: 7.08 µM [falling, partial curve, poor fit] | AC50 [1]: 0.112 µM [falling, full curve, poor fit]

CCn1c2ccccc2c2cc(NC(=O)COC(=O)c3cc(S(=O)(=O)N4CCCCC4)ccc3Cl)ccc21
AC50 [2]: 35.5 µM [rising, single point] | AC50 [1]: 35.5 µM [rising, single point]

O=C(CSC1=Nc2ccccc2C2=NC(CC(=O)NC3CCCCC3)C(=O)N12)Nc1ccc(F)cc1 (stereo not given)
AC50 [1]: 35.5 µM [rising, single point]

COC(=O)c1cc(NS(=O)(=O)c2ccc(OC)c(OC)c2)ccc1Cl
AC50 [1]: 15.8 µM [rising, partial curve]

CCOc1cc(CO)cc(Br)c1OCC(=O)Nc1ccccc1C
AC50 [1]: 0.0126 µM [falling, full curve, poor fit]

COc1cc2nc(N(C)CCCNC(=O)[C@@H]3CCCO3)nc(N)c2cc1OC
AC50 [2]: 0.002 µM [falling, full curve] | AC50 [1]: 0.00178 µM [falling, full curve, poor fit]

CC(C)(C)c1nc2cc(Cl)c([N+](=O)[O-])cc2o1
AC50 [1]: 6.31 µM [falling, single point]

CCCCCCCN=CC1=C(O)CC(c2ccccc2)CC1=O (stereo not given)
AC50 [1]: 0.141 µM [falling, full curve, poor fit]

Cc1[nH]n(-c2ccccc2)c(=O)c1C(C[N+](=O)[O-])c1ccc(F)cc1 (stereo not given)
AC50 [2]: 25.1 µM [rising, single point] | AC50 [1]: 12.6 µM [rising, single point]

CCCS(=O)(=O)N1CCN(Cc2ccco2)CC1
AC50 [1]: 5.62 µM [rising, single point]

CCOc1ccc(C2c3[nH]c4ccccc4c3CCN2C(=O)CCc2ccccc2)cc1 (stereo not given)
AC50 [2]: 0.891 µM [falling, full curve, poor fit] | AC50 [1]: 35.5 µM [rising, single point]

Cc1cc(C(=O)CSc2nn3c(=O)c(C(C)(C)C)nnc3s2)c(C)n1-c1ccc(F)cc1
AC50 [2]: 10 µM [rising, partial curve, poor fit]

N#Cc1c(SCc2ccc(Cl)cc2)sc(C(=O)c2ccccc2)c1N
AC50 [2]: 12.6 µM [rising, single point]

O=C(c1cnn(C(=O)c2cccc(S(=O)(=O)N3CCOCC3)c2)c1)c1cc(Cl)cc(Cl)c1O
AC50 [2]: 10 µM [falling, partial curve] | AC50 [1]: 7.08 µM [falling, partial curve]

O=C(NCc1ccco1)C1CCN(C(=O)N2CCOc3ccccc32)CC1
AC50 [1]: 0.00316 µM [rising, full curve, poor fit]

O=[N+]([O-])c1ccc(-c2nc(-c3ccc(F)cc3)c(-c3ccncc3)[nH]2)cc1
AC50 [2]: 6.31 µM [falling, partial curve] | AC50 [1]: 0.00447 µM [falling, full curve, poor fit]

Source: PubChem BioAssay AID1487 (National Center for Advancing Translational Sciences (NCATS), 2009)
